From PubChem BioAssay AID493014 (National Center for Advancing Translational Sciences (NCATS), 2011)
This is one part of the list. Further columns of the screen follow, without active or inactive calls. Most of these compounds were active or inconclusive in the main read-out, so they are no random draw. The note in brackets gives the kind of curve behind each potency; many fits are weak.

Assay: qHTS Assay to Find Inhibitors of Chronic Active B-Cell Receptor Signaling
Conditions: ABC-DLBCL IkBa-CBG/CBR reporter, luminescence ratio (green luciferase fused to IkBa over red control in TMD8 lymphoma cells), 4 h
How it was run: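 Compounds up to 46 uM were incubated four hours with TMD8 cells whose green CBG68 luciferase is fused to IkappaBalpha; red CBR luminescence normalised the signal, and concentration-effect curves were fitted to fusion, red and ratio data.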

[1] = measured here: CBR red luminescence, cell number
[2] = measured here: IkBa-CBG green luminescence

| SMILES | AC50 [1] | AC50 [2] |
| --- | --- | --- |
| Cc1ccnc(NC(=O)C2CC(=O)N(Cc3ccccc3)C2)c1 (configuration not stated) | 25.9 µM [falling, partial curve] | – |
| CC(C)NS(=O)(=O)c1ccc(NC(=O)C(C)Oc2ccc(C(=O)c3ccccc3)cc2)cc1 (configuration not stated) | 8.2 µM [falling, partial curve, poor fit] | – |
| CCN1CCN(Cc2nnc(-c3ccccc3)o2)CC1 | 2.24 µM [falling, partial curve] | – |
| O=c1cc(-c2cccc(F)c2)[nH]c2ccccc12 | – | 11.6 µM [falling, partial curve] |
| COc1ccc(C(=O)c2c(C(F)(F)F)oc3c2C(=O)c2ccccc2C3=O)cc1OC | 0.146 µM [falling, full curve, poor fit] | – |
| CCCCCCCCCC(=O)NNC(=O)c1c(O)c2ccccc2n(CCC)c1=O | 5.62 µM [falling, single point] | – |
| Cc1ccccc1C(=O)NC(=S)Nc1cccc(NC(=O)C(C)C)c1 | 1 µM [falling, full curve] | – |
| Cc1ccc(C(=O)c2ccc(N3CCN(C)CC3)c([N+](=O)[O-])c2)cc1 | 29.1 µM [falling, single point] | – |
| CC(=O)N1c2ccc(S(=O)(=O)NCCC(=O)NCCc3ccc(Cl)cc3)cc2CC1C (configuration not stated) | 35.5 µM [falling, single point] | – |
| COc1ccc(CCNC(=O)NC23CC4CC(CC(C4)C2)C3)cc1 | 7.31 µM [rising, partial curve, poor fit] | – |
| c1ccc2oc(-c3csc(N4CCOCC4)n3)cc2c1 | 1.58 µM [rising, partial curve, poor fit] | – |
| C=CCn1c(SCC(=O)Nc2sccc2C(N)=O)nc2sc(CC)cc2c1=O | 14.6 µM [falling, partial curve] | 6.51 µM [rising, partial curve, poor fit] |
| CCCCCCCCCCSc1n[nH]c(N)n1 | 9.2 µM [rising, partial curve] | – |
| O=C(NCCC1=CCCCC1)C1CCN(S(=O)(=O)c2cnc[nH]2)CC1 | 29.1 µM [falling, single point] | – |
| CCOC(=O)c1c(NC(=O)c2c(Br)cnn2C)c(C#N)nn1-c1ccccc1 | 0.447 µM [rising, partial curve, poor fit] | – |
| Cc1[nH]c(=O)c(C#N)c2c1CSC(C)(C)C2 | 12.6 µM [rising, partial curve] | – |
| Cc1ccc(C(=O)CSc2nnc(-c3ccncc3)n2C)cc1 | 35.5 µM [falling, partial curve, poor fit] | – |
| COC(=O)Cc1[nH]n(-c2nc3ccccc3s2)c(=O)c1C(C)=Nc1ccc(Cl)cc1 | 7.08 µM [falling, partial curve, poor fit] | – |
| O=C(c1ccc2c(c1)N(Cc1cccc(Cl)c1)C(=O)c1ccccc1S2(=O)=O)N1CCCCCC1 | 35.5 µM [falling, single point] | – |
| O=C(NCCc1ccccc1)/C(=C\c1ccccc1)NC(=O)c1ccco1 | 17.8 µM [rising, partial curve, poor fit] | – |
| O=C(O)c1ccc(-c2noc(-c3cccc(Cl)c3)n2)cc1 | 0.0411 µM [falling, full curve] | – |
| CC(=O)N=c1sc2nc3ccccc3nc2n1N(C(C)=O)C(C)=O | 18.4 µM [falling, partial curve, poor fit] | – |

| SMILES | AC50 [1] | AC50 [2] |
| --- | --- | --- |
| C=C1CCN([C@H](C(=O)OCc2cccc(C)c2)C(C)C)S(=O)(=O)c2ccccc21 | 35.5 µM [falling, partial curve, poor fit] | – |
| CC(=O)N(CCP(=O)(c1ccccc1)c1ccccc1)Cc1ccco1 | 3.98 µM [rising, partial curve, poor fit] | – |
| CCCC1=Nc2cc(C(=O)NCCCOC(C)C)ccc2Sc2ccccc21 | 14.6 µM [rising, partial curve, poor fit] | 16.4 µM [falling, partial curve] |
| O=c1[nH]cc(S(=O)(=O)Nc2ccc3c(c2)OCO3)c(=O)[nH]1 | 32.6 µM [falling, partial curve, poor fit] | – |
| Cc1nc2c(cc1C#N)C(=O)c1ccccc1-2 | 9.2 µM [falling, partial curve, poor fit] | – |
| CC(C)=NNc1nc(-c2ccccc2)cs1 | 7.31 µM [falling, partial curve] | – |
| CC(C)OC(=O)CCCCCN1C(=O)CSC1=S | 20.6 µM [falling, single point] | – |
| O=C(O)c1ccc(-c2nc(-c3ccccc3)cs2)cc1 | 5.62 µM [falling, partial curve, poor fit] | – |
| N#CCC(=O)Nc1ccc(C(=O)NNC(=S)NC2CCCCC2)cc1 | 6.51 µM [rising, single point] | – |
| CCOC(=O)c1c(NC(=O)CSC(=S)N(C)C)sc(C)c1C | 20.6 µM [falling, single point] | – |
| CCOC(=O)c1cc(CC)sc1NC(=O)CC1SC(N)=NC1=O (configuration not stated) | 2 µM [falling, partial curve, poor fit] | – |
| CCN(CC)S(=O)(=O)c1cc(NC(=O)C(=O)c2c(-c3ccccc3)cc3ccccn23)ccc1C | 6.51 µM [rising, single point] | – |
| CNC(=O)/C(C#N)=C/c1ccc(-c2ccc(Cl)cc2)o1 | 0.708 µM [rising, full curve, poor fit] | – |
| CC1CCCCC1NC(=O)/C(C#N)=C/c1ccc2c(c1)OCCO2 (configuration not stated) | 23.1 µM [falling, partial curve, poor fit] | – |
| Cc1ccc(Nc2nc(/N=C/N(C)C)n[nH]2)cc1C | 35.5 µM [falling, single point] | – |
| Cc1c(C)n(C(=O)CSc2ncn[nH]2)c2ccccc12 | 7.31 µM [rising, partial curve, poor fit] | – |
| O=C(Nc1ccc(Cl)cc1Cl)c1ccc2c(c1)OCCO2 | 16.4 µM [falling, single point] | – |
| Cc1cccc(NC(=S)NNC(=O)c2nn(C)cc2Cl)c1 | 35.5 µM [falling, single point] | – |
| Cc1cc(=O)n2[nH]c(-c3ccccc3Cl)cc2n1 | 20 µM [rising, single point] | – |
| CCOC(=O)Nc1ccc2c(c1)N(C(=O)CCN1CCOCC1)c1ccccc1S2=O (configuration not stated) | 7.08 µM [falling, full curve] | – |
| O=C(/C=C/c1ccccc1)Nc1ncn[nH]1 | 7.08 µM [falling, partial curve] | – |
| Cc1nc2ccc(NC(=O)COc3cccc(F)c3)cc2s1 | 3.16 µM [rising, partial curve, poor fit] | – |

Full records from above.
O=C(Nc1ccc(Cl)cc1Cl)c1ccc2c(c1)OCCO2 is listed as AC50 [1]: 16.4 µM [falling, single point]
CC1CCCCC1NC(=O)/C(C#N)=C/c1ccc2c(c1)OCCO2 (configuration not stated) is listed as AC50 [1]: 23.1 µM [falling, partial curve, poor fit]
CCN(CC)S(=O)(=O)c1cc(NC(=O)C(=O)c2c(-c3ccccc3)cc3ccccn23)ccc1C is listed as AC50 [1]: 6.51 µM [rising, single point]
N#CCC(=O)Nc1ccc(C(=O)NNC(=S)NC2CCCCC2)cc1 is listed as AC50 [1]: 6.51 µM [rising, single point]

Retrieved one by one from the entries so far (two):

| SMILES | AC50 [1] | AC50 [2] |
| --- | --- | --- |
| CNC(=O)/C(C#N)=C/c1ccc(-c2ccc(Cl)cc2)o1 | 0.708 µM [rising, full curve, poor fit] | – |
| CCCCCCCCCCSc1n[nH]c(N)n1 | 9.2 µM [rising, partial curve] | – |

More records follow.

| SMILES | AC50 [1] | AC50 [2] |
| --- | --- | --- |
| CC(=O)Nc1ccc(SCC(=O)O)cc1 | 39.8 µM [rising, partial curve, poor fit] | – |
| CCOC(=O)Cc1c(C)nc2c(-c3ccc(Cl)cc3)c[nH]n2c1=O | 6.51 µM [rising, single point] | – |
| COCCNC(=O)c1c(N)n(/N=C/c2ccc(F)cc2)c2nc3ccccc3nc12 | 0.708 µM [falling, full curve, poor fit] | – |
| CCCOc1ccc(/C=N/Nc2ccc(C(=O)O)cc2)c(OCCC)c1 | 0.251 µM [falling, full curve] | – |
| O=C(/C=C/c1cccc([N+](=O)[O-])c1)n1cnc2ccccc21 | 2.24 µM [falling, full curve, poor fit] | – |
| CSc1nc2ccc(S(=O)(=O)Nc3c(C)n(C)n(-c4ccccc4)c3=O)cc2s1 | 2.59 µM [rising, full curve, poor fit] | – |
| O=C(Nc1nc(-c2ccc(S(=O)(=O)N3CCCC3)cc2)cs1)C1COc2ccccc2O1 (configuration not stated) | 0.291 µM [rising, full curve] | – |
| CCc1ccc2c(c1)c1nnc(NN)nc1n2C | 5.62 µM [rising, single point] | – |
| COc1ccc2oc(=O)c(C(=O)OCc3ccccc3)cc2c1 | 6.31 µM [rising, single point] | – |
| Cc1nc(SCC(=O)NCC2CCCO2)nc(C)c1C (configuration not stated) | 23.1 µM [rising, single point] | – |
| O=C(c1cc2cc(C(F)(F)F)ccc2s1)N1CCOCC1 | 1.12 µM [rising, partial curve] | – |
| CS(=O)(=O)c1cc([N+](=O)[O-])c(Sc2nc3ccccc3[nH]2)c([N+](=O)[O-])c1 | 29.1 µM [falling, single point] | 29.1 µM [rising, single point] |
| COc1ccc(CCn2c(-c3ccncc3)n[nH]c2=S)cc1OC | 15.8 µM [rising, partial curve, poor fit] | – |
| O=C(Nc1ccc(S(=O)(=O)Nc2nccs2)cc1)C1=NN(c2ccccc2)C(=O)CC1 | 35.5 µM [falling, single point] | – |
| O=C(Nc1nc(-c2ccc(F)c(F)c2)cs1)C1=COCCO1 | 29.1 µM [falling, single point] | – |
| c1ccc(CCSc2ncnc3nc[nH]c23)cc1 | 1.46 µM [rising, partial curve, poor fit] | – |
| Cc1cc(C)n(-c2nc(NCCN(C)C)c3c4c(sc3n2)CCCC4)n1 | 35.5 µM [falling, single point] | – |
| C/C(=N\NC(=O)c1ccccc1F)c1cccc(NC(=O)c2ccc(C)cc2)c1 | 35.5 µM [falling, single point] | – |
| Cc1cc(NC(=O)c2cc(-c3ccco3)on2)no1 | 35.5 µM [falling, single point] | – |
| CCN(CC)C(=O)C1CCN(Cc2cn(C)nc2-c2ccc(Oc3ccccc3)cc2)CC1 | 6.31 µM [rising, single point] | – |
